In the test the target is T1, TAP-Pib2 (S. cerevisiae) (UniProt P53191).
T1 sequence: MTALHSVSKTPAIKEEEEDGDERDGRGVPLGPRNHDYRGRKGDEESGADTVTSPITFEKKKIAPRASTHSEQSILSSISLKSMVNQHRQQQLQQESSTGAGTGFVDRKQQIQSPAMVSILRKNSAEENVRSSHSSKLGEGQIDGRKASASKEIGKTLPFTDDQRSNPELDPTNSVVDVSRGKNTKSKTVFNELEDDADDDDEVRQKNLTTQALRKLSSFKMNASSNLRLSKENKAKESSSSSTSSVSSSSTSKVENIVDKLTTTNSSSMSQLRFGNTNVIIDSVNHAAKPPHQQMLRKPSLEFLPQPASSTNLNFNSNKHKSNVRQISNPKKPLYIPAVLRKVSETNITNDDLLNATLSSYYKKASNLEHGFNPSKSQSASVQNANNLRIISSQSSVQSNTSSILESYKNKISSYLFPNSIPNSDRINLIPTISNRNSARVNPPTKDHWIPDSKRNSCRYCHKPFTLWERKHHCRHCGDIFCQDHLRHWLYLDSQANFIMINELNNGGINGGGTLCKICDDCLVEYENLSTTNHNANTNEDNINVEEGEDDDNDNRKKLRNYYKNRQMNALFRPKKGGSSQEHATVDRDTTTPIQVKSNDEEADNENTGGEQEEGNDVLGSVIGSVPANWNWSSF
Put plainly: affinity purification with mass spectrometry; TAP-Pib2 immunoprecipitated with rabbit IgG on M270 epoxy Dynabeads from yeast lysate; Lysis150 buffer (50 mM Tris-HCl pH 8, 150 mM NaCl, 10% glycerol, 1 mM DTT, 0.2% Triton X-100), with or without 60 mM glutamine; LC-MS/MS.

By UniProt entry, the sequences of proteins in these tests, tags left out.
UniProt P32600: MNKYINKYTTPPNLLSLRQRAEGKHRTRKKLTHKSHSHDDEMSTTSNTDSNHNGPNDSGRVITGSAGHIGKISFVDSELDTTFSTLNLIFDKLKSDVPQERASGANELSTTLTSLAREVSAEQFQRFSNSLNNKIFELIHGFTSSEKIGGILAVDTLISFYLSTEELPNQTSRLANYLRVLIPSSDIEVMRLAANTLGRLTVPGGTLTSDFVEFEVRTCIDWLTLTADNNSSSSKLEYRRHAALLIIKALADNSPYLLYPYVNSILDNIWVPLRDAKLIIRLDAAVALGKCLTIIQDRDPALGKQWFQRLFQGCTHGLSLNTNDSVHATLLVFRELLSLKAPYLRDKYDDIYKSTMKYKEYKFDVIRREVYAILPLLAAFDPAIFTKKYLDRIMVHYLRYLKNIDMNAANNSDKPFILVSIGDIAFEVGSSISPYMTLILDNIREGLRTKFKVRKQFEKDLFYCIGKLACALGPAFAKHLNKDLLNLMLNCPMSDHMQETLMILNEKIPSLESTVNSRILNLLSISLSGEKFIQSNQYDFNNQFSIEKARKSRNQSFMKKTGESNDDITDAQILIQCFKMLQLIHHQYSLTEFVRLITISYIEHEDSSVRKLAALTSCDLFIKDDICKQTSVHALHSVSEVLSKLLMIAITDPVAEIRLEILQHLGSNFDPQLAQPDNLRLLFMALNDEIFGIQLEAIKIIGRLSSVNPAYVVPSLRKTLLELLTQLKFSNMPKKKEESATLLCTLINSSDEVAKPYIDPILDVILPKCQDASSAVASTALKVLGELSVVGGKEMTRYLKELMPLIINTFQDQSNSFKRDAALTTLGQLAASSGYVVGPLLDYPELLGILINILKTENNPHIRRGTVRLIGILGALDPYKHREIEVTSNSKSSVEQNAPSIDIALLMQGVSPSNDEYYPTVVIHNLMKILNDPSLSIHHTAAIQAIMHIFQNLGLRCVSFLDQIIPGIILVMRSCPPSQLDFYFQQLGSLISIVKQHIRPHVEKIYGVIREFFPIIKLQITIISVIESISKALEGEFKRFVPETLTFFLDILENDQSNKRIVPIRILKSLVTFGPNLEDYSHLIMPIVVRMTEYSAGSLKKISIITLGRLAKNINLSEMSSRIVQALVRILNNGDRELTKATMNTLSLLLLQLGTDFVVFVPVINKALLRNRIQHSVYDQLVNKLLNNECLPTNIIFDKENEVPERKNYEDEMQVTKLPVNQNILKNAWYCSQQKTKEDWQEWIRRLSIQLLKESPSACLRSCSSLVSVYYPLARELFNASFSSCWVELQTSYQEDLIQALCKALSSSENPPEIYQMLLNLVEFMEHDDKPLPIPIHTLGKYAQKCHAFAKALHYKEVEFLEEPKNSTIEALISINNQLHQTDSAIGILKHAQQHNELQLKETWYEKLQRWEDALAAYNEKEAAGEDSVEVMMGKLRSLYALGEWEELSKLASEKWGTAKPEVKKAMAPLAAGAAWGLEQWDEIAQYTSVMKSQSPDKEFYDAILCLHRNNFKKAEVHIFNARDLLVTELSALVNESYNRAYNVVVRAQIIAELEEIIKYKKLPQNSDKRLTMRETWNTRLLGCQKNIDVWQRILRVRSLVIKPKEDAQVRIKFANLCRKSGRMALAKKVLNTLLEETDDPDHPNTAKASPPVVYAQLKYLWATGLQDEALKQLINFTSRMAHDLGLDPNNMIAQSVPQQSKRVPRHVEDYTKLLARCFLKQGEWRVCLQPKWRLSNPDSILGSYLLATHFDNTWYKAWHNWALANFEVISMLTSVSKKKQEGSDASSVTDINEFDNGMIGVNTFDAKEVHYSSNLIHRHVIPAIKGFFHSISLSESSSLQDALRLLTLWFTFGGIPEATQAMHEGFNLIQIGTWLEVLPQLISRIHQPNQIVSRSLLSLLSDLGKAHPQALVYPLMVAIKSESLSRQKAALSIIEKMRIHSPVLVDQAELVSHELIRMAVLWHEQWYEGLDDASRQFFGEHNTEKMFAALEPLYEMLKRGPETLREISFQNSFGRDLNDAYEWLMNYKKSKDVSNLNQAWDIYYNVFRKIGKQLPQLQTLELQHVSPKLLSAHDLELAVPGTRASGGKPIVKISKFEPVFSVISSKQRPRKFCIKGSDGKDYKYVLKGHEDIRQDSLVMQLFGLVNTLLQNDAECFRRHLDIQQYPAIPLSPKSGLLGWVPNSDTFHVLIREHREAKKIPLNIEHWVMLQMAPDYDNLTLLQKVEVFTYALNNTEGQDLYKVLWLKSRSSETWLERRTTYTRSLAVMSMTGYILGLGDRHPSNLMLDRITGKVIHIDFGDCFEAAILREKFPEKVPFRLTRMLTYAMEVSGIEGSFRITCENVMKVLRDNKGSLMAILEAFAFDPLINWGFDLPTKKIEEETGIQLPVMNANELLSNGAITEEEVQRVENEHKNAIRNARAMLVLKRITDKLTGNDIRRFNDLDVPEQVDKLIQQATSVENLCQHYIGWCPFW
UniProt P35169: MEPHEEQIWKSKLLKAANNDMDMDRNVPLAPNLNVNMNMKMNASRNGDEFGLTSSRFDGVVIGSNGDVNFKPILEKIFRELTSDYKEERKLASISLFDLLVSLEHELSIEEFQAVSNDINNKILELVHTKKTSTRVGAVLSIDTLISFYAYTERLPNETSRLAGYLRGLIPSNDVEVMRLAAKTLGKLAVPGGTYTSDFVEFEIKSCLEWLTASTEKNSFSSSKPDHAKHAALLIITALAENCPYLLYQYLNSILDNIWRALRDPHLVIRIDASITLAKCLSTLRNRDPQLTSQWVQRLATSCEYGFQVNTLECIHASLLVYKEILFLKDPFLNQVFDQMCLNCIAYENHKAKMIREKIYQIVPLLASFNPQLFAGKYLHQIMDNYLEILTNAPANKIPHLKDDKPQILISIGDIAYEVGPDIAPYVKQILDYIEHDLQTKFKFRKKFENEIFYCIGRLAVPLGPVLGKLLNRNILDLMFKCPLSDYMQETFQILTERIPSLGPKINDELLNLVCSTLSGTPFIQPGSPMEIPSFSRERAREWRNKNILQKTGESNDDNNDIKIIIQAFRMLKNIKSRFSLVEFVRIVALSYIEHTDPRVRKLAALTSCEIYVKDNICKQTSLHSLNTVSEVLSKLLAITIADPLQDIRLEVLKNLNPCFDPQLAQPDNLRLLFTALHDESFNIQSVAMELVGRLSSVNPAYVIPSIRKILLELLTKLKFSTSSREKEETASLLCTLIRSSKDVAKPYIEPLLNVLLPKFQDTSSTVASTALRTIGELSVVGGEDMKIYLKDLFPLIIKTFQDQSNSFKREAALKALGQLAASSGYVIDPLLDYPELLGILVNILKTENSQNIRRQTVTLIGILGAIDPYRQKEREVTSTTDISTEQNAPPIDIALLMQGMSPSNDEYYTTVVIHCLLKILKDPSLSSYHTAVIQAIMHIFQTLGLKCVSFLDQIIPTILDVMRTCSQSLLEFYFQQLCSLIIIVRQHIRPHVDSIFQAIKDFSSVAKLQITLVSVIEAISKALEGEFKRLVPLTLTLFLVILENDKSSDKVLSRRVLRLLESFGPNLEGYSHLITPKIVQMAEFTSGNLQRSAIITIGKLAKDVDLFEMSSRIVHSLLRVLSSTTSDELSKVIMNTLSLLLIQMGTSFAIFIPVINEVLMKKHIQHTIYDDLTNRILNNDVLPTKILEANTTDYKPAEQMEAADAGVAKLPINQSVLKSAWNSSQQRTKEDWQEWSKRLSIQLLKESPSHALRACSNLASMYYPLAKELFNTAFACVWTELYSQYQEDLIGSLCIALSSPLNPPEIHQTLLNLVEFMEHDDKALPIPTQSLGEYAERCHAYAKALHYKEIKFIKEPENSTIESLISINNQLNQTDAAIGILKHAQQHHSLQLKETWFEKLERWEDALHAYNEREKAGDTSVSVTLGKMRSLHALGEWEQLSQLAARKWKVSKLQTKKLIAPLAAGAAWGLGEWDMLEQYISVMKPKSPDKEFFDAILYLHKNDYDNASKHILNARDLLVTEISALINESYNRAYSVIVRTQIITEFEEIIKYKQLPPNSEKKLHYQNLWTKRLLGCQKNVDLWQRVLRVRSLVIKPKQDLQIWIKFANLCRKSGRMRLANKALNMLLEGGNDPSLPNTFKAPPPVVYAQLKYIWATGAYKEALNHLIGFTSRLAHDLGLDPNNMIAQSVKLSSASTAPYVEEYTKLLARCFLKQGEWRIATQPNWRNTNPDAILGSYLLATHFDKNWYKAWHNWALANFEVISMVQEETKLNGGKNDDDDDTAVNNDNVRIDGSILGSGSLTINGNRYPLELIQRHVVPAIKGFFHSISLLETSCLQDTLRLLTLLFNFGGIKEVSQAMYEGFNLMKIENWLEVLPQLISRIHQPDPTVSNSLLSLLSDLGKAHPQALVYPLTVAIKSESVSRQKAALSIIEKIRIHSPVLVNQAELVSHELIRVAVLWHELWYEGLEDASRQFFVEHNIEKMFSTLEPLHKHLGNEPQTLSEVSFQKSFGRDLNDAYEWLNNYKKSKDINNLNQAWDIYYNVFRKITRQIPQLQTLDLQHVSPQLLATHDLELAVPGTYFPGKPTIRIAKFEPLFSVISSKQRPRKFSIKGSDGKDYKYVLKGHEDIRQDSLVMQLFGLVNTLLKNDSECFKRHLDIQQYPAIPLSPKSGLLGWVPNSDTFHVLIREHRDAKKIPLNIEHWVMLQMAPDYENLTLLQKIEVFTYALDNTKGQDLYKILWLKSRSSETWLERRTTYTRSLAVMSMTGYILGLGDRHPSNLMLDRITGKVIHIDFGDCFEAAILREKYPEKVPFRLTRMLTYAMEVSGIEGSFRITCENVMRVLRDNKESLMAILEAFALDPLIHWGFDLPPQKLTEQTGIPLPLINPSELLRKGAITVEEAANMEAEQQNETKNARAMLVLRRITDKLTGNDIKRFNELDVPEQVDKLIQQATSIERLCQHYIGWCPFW
UniProt P38873: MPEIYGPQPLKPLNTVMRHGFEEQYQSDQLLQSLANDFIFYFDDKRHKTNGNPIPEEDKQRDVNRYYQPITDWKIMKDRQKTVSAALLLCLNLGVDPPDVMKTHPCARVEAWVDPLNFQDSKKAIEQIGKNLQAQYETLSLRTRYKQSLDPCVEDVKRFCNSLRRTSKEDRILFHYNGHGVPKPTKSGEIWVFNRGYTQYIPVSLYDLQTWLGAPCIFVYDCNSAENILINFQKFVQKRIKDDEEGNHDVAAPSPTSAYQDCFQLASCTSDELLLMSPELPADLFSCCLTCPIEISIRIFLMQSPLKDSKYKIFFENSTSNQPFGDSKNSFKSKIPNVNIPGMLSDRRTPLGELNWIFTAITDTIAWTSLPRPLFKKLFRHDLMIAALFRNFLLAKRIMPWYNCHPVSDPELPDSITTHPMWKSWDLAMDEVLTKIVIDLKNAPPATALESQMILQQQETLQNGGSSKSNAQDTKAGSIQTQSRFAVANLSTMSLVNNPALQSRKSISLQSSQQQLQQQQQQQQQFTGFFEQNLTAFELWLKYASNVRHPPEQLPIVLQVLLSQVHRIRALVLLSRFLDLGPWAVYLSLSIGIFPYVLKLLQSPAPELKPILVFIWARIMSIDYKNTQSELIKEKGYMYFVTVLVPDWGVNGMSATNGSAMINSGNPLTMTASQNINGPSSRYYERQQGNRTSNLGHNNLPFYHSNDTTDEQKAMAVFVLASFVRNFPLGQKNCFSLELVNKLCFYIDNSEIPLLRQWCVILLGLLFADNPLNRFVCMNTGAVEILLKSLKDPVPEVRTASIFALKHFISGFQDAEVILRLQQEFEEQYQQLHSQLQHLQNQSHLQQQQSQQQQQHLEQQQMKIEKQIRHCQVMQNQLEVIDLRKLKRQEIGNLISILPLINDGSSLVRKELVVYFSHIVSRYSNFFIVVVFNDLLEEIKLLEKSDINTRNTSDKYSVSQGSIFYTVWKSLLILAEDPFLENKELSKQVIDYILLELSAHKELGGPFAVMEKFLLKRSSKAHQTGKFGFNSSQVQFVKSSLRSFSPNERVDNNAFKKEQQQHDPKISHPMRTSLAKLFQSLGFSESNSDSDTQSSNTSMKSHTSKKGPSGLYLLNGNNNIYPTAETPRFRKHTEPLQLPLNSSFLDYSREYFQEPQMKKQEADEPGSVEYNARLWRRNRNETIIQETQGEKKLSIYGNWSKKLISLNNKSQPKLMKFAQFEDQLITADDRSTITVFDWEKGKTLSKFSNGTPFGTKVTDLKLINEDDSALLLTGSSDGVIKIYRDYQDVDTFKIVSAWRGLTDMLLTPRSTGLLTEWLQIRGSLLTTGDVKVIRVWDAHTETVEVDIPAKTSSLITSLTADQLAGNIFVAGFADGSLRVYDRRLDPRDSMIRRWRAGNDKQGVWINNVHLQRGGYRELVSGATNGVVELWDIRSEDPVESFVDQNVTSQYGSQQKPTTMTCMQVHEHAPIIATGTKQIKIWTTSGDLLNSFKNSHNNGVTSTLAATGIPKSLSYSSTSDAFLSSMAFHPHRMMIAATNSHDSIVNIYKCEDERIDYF

No constants are given. Whether binding was seen depends on the method and setting. Binding seen in cells or lysates may run through a third protein. These calls come from enrichment with a bait or labelling near it, and not all partners need be listed.

On to Tor2 (from UniProt P32600 1-2474), for which the binding entry is “binds”.

With “Tor1 (endogenous) (from UniProt P35169 1-2470)”, the binding result is “binds”. The same measure for Kog1 (from UniProt P38873 1-1557): “binds”.

B1: Tco89 (protein, UniProt Q08921 1-799)
chain: MVHRGRTLKSDTDVTSLNASTVSHQSKPFRQFSTRSRAKSNASFKGLRRVLTHDGTLDNDYFNKHNVSQKCKSSDALFRKRTISGLNMTALTRVKSNQGKRSASFHSPVHNTLLSPKNSSHSNTGTAGFGLKPRRSKSTQSVLSLRDAQESKKSESTTDEEVECFSEDNIEDGKVNNDKVIAEHVMPEEKKNVQQLNQNELQSPDSIDEQEEDKSGTDGKENHRAVSLPLPHLSSNNYFGESSHSIEHQKDGETSPSSIETKLNATSVINEEGQSKVTKEADIDDLSSHSQNLRASLVKAGDNISEAPYDKEKKILDVGNTLAAHKSNQKPSHSDEQFDQEDHIDAPRSNSSRKSDSSFMSLRRQSSKQHKLLNEEEDLIKPDDISSAGTKDIEGHSLLENYAPNMILSQSTGVERRFENSSSIQNSLGNEIHDSGEHMASGDTFNELDDGKLRKSKKNGGRSQLGQNIPNSQSTFPTIANIGSKDNNVPQHNFSTSISSLTNNLRRAAPESFHGSRMNNIFHKKGNQNLLLRSNDLNKNSAAPASPLSNEHITSSTNSGSDANRQSNSGAKFNSFAQFLKSDGIDAESRTQRKLWLQRENSIMDLSSQNDGSDSIFMAGNIDAKREFERISHEYSNVKRFYNPLDEALLRVQPIITGNANNIRKKSHNDAQSIAHSSSDTDHKDEDDLLFTNYDKKFDDLYPHLASAKIQAVLSGIWKSESYLFNKDVNPINKNRTTSTNHSVGHTASQNARNLLRGPMGSSTTLHHQRVINSLQPTTRAVNRRMENVGYMHTQPQQR
Turning to B1, the binding entry was “binds”.

B2: Lst8 (protein, UniProt P41318 1-303)
chain: MSVILVSAGYDHTIRFWEALTGVCSRTIQHSDSQVNRLEITNDKKLLATAGHQNVRLYDIRTTNPNPVASFEGHRGNVTSVSFQQDNRWMVTSSEDGTIKVWDVRSPSIPRNYKHNAPVNEVVIHPNQGELISCDRDGNIRIWDLGENQCTHQLTPEDDTSLQSLSMASDGSMLAAANTKGNCYVWEMPNHTDASHLKPVTKFRAHSTYITRILLSSDVKHLATCSADHTARVWSIDDDFKLETTLDGHQRWVWDCAFSADSAYLVTASSDHYVRLWDLSTREIVRQYGGHHKGAVCVALNDV
Turning to B2, the binding entry is reported as “binds”.
